Results reported in the supplement of paper PMC6411743.
± gives the standard deviation of the averaged measurements. Only a part is listed here, and it is no random draw. Small differences around the control level are noise.

The chains behind the UniProt entries cited, without tags or fusion partners. Where a name states a change or a piece, a line headed by the entry shows the natural chain unless it says otherwise.
UniProt Q8NDX5: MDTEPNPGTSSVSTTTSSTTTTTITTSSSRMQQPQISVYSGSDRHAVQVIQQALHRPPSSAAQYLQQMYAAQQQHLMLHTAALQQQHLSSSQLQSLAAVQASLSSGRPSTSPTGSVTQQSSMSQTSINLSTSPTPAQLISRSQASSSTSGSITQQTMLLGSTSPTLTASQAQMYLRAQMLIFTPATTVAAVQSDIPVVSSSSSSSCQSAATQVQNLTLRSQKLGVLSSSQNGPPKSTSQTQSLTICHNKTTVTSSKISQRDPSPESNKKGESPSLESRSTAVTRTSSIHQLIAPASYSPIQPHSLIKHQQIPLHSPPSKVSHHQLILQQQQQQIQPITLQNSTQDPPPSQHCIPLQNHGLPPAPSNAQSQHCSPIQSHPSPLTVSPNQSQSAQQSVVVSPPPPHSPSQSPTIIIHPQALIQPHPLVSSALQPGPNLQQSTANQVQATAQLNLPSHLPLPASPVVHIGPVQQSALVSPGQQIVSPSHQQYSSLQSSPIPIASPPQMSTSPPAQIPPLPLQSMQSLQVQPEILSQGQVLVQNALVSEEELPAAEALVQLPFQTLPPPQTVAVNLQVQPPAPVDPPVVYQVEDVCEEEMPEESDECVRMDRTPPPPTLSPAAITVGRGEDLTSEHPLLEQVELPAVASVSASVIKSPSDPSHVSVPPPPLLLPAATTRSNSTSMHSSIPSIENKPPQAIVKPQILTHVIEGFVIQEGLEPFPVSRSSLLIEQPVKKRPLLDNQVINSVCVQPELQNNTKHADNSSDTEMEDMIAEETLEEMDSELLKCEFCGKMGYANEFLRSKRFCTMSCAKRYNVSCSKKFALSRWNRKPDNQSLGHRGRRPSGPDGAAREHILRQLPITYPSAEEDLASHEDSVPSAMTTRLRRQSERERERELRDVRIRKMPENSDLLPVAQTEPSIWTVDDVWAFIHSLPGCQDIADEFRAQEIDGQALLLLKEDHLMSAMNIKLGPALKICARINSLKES
UniProt Q8IWR0: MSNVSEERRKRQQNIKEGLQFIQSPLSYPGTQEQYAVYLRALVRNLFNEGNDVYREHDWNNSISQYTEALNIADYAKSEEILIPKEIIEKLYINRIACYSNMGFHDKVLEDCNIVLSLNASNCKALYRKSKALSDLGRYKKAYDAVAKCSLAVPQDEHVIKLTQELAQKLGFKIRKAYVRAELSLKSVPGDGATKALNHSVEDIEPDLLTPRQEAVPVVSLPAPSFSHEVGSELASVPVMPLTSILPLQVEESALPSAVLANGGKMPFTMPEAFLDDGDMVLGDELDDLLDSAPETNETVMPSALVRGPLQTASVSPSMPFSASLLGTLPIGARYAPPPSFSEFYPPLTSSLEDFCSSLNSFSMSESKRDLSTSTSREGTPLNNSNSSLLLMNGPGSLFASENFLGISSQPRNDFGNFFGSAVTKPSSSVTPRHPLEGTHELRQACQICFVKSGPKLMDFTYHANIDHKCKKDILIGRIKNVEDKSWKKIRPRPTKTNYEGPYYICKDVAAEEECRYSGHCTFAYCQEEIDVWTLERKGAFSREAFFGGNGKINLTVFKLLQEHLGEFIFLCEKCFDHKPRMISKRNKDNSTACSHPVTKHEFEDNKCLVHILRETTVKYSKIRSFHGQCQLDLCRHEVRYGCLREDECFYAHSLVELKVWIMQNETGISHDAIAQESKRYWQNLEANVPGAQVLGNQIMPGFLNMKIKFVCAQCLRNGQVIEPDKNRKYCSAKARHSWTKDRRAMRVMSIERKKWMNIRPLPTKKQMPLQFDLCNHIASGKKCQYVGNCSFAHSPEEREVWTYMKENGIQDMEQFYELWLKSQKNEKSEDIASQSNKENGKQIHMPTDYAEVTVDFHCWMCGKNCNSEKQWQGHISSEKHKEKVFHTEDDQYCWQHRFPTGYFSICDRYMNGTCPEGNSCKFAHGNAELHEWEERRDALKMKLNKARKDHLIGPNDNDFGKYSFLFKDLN
UniProt Q8IYW5, whole entry: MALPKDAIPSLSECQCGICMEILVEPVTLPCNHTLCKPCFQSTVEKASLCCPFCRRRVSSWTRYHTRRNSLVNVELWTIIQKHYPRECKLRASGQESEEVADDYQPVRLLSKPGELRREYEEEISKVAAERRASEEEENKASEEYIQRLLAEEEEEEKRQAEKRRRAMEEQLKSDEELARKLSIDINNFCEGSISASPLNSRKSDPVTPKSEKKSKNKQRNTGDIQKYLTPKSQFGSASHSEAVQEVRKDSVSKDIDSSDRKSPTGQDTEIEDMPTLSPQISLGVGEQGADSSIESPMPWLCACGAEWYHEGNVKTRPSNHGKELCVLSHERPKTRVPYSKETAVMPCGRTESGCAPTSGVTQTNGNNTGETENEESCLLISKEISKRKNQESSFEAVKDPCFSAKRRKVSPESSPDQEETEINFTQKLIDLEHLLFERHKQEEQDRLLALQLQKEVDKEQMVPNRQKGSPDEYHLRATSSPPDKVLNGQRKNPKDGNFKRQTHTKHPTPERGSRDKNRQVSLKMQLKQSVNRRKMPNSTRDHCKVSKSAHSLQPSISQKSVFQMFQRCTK
UniProt Q8N5U6: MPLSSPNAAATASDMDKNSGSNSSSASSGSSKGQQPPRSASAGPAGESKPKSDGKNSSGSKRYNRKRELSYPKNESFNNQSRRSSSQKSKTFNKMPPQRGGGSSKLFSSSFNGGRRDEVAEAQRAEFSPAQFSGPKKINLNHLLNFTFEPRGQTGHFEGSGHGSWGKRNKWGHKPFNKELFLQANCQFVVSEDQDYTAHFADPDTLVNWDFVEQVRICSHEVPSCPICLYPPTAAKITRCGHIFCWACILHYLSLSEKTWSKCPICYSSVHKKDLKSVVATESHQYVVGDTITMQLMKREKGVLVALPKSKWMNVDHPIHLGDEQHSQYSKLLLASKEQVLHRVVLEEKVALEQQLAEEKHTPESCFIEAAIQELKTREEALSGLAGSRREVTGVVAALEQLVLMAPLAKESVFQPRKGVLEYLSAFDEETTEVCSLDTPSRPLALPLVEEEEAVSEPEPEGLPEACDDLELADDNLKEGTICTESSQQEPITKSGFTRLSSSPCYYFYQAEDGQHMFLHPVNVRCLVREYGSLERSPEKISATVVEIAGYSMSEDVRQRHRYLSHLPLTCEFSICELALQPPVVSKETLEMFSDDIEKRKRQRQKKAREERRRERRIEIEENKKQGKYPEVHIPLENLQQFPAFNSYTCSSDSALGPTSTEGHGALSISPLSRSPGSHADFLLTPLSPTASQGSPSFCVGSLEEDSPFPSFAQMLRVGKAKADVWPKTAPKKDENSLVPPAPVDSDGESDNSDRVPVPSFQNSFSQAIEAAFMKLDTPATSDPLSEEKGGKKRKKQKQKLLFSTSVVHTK
UniProt Q8ND56: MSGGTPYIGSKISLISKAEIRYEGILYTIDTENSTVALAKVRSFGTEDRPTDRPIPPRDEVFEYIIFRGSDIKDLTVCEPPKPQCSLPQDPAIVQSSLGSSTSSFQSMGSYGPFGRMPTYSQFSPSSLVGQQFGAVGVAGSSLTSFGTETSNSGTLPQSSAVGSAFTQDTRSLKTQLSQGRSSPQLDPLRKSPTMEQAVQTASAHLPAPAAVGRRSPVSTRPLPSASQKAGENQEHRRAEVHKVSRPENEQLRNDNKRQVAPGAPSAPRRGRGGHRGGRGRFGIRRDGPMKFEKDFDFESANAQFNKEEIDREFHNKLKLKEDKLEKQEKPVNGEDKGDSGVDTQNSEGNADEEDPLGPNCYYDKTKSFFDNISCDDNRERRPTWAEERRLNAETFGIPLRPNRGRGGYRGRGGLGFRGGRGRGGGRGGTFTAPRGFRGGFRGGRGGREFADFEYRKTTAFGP
UniProt Q8NHG8: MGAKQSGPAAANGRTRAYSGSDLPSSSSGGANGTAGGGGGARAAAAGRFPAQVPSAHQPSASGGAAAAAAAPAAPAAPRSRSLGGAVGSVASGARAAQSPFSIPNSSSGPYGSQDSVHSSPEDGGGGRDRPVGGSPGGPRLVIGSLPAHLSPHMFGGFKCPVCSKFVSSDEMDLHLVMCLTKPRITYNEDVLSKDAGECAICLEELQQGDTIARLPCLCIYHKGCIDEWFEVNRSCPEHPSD
UniProt Q8N0W3: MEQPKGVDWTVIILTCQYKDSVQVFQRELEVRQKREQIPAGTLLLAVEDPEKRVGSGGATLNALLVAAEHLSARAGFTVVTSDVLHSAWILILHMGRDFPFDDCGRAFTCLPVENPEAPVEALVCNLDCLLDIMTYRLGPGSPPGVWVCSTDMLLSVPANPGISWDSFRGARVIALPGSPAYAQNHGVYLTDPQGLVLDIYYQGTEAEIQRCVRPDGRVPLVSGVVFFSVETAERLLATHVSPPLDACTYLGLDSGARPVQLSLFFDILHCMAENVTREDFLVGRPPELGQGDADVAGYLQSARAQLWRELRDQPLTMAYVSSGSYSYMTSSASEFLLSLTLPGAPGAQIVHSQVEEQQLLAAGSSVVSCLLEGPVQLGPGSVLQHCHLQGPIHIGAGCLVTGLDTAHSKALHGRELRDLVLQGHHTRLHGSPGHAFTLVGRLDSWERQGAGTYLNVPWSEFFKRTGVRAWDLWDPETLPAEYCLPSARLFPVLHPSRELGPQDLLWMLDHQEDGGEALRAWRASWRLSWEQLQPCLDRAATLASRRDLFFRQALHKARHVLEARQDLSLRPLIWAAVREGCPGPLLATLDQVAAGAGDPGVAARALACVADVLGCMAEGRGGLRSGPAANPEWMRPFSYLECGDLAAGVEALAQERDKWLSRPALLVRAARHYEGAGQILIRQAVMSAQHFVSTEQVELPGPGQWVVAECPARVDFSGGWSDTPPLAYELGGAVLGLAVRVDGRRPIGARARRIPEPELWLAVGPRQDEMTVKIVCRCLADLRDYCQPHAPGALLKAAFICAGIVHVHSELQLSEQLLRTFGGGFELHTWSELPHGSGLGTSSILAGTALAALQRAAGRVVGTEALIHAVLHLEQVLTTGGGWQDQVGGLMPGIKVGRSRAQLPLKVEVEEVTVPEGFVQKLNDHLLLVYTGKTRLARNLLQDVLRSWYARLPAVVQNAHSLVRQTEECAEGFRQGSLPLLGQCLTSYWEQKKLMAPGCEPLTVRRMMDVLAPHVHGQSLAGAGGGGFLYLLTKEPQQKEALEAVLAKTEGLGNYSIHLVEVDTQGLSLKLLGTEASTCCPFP
UniProt Q8N9N7: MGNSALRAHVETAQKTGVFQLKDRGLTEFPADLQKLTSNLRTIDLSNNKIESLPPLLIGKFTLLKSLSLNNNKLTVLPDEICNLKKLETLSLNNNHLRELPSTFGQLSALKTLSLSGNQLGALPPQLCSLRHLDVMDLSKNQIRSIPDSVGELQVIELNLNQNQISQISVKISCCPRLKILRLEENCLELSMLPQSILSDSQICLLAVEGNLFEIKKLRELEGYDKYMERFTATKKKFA
UniProt Q8N3U4: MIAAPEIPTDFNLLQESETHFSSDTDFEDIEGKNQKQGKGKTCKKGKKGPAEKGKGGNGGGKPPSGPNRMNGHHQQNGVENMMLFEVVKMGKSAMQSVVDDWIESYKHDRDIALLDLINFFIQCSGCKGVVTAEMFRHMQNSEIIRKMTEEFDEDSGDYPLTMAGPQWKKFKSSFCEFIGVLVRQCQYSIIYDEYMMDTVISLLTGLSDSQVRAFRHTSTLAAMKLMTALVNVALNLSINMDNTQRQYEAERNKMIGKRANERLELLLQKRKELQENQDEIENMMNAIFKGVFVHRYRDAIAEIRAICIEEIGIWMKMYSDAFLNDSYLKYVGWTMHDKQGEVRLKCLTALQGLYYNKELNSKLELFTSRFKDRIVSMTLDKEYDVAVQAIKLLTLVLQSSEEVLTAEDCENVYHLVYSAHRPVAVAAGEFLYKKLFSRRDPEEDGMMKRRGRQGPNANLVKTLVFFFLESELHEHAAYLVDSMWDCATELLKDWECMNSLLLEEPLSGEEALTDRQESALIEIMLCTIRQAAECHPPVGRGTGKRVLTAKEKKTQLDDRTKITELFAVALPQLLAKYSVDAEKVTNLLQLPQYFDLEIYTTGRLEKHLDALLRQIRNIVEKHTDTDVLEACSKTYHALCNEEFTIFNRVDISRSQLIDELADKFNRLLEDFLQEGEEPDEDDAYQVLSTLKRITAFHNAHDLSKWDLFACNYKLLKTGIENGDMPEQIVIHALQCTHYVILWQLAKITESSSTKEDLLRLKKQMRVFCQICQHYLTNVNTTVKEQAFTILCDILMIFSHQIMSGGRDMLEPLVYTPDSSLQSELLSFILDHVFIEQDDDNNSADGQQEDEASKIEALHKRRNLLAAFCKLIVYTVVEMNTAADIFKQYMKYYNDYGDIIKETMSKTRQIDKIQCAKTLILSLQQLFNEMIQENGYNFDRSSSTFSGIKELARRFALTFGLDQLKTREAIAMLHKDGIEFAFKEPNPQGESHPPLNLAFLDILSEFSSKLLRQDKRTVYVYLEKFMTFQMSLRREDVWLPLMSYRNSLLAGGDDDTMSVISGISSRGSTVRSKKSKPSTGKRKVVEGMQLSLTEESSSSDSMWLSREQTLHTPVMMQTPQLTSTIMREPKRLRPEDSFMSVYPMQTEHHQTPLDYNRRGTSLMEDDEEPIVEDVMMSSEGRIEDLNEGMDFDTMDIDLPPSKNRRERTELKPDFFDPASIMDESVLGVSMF

Compound: Nc1ncnc2c1ncn2[C@@H]1O[C@H](COP(=O)(O)OP(=O)(O)OP(=O)(O)O)[C@@H](O)[C@H]1O [adenosine triphosphate]
Assay: NP40-soluble protein abundance relative to vehicle (solubility fold change) (ratio); higher = more soluble protein in presence of ATP
Summary of the method: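 Values are fold changes against the detergent-processed vehicle, based on vsn-normalised intensities. Jurkat crude lysate was treated at eight concentrations from 0.1 to 10 mM (10 min at room temperature, then 3 min at 37 °C), solubilised with 0.8% NP40 and benzonase, ultracentrifuged and analysed by TMT-labelled LC-MS/MS over three independent experiments.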

Target	NP40-soluble protein abundance (concentration: 0.1mM)	NP40-soluble protein abundance (concentration: 0.5mM)
TMEM102 (UniProt Q8N9M5)	0.959 ± 0.025	0.964 ± 0.036
MOSPD2 (UniProt Q8NHP6)	1.06 ± 0.071	1.04 ± 0.07
UniProt Q8N9B5 and related entries	1.4 ± 0.38	0.985 ± 0.051
UniProt Q8IW41 and related entries	1.042 ± 0.0079	1.03 ± 0.083
SMYD4 (UniProt Q8IYR2)	1.03 ± 0.012	1.07 ± 0.064
ASCC3 (UniProt Q8N3C0)	1.02 ± 0.031	0.973 ± 0.042
PDPR (UniProt Q8NCN5)	1.08 ± 0.096	1.05 ± 0.046
UniProt Q8NBJ4 and related entries	0.873 ± 0.091	0.883 ± 0.061
GUF1 (UniProt Q8N442)	1.16 ± 0.1	1.12 ± 0.049
UniProt Q8NDX5 and related entries	0.972 ± 0.035	1.04 ± 0.1
NUP43 (UniProt Q8NFH3)	1.05 ± 0.082	1.01 ± 0.077
PAF1 (UniProt Q8N7H5)	1.01 ± 0.037	1.05 ± 0.047
KRI1 (UniProt Q8N9T8)	1.06 ± 0.022	1.04 ± 0.021
ZC3H7A (UniProt Q8IWR0)	1.04 ± 0.062	1.05 ± 0.045
LRRC47 (UniProt Q8N1G4)	1.04 ± 0.052	1.03 ± 0.071
CEP76 (UniProt Q8TAP6)	1.01 ± 0.03	1.01 ± 0.023
WDFY1 (UniProt Q8IWB7)	1.06 ± 0.07	1.01 ± 0.06
CADM4 (UniProt Q8NFZ8)	1.14 ± 0.11	1.12 ± 0.044
UniProt Q8NHP8 and related entries	0.899 ± 0.029	0.894 ± 0.092
CLIP4 (UniProt Q8N3C7)	1.1 ± 0.043	1.22 ± 0.14
RNF168 (UniProt Q8IYW5)	0.976 ± 0.014	0.94 ± 0.044
UniProt Q8IYB5-2|Q8IYB5-3|Q8IYB5	1.01 ± 0.054	1.04 ± 0.095
DHX37 (UniProt Q8IY37)	1.08 ± 0.015	1.16 ± 0.029
UniProt Q8IWF6	0.989 ± 0.054	1.03 ± 0.068
C12orf29 (UniProt Q8N999)	1.06 ± 0.037	1.04 ± 0.014

Target	NP40-soluble protein abundance (concentration: 0.1mM)	NP40-soluble protein abundance (concentration: 0.5mM)
NUBPL (UniProt Q8TB37)	1.024 ± 0.0096	1.05 ± 0.024
NUDCD3 (UniProt Q8IVD9)	0.99 ± 0.042	1.03 ± 0.075
UniProt Q8N1G2	1.05 ± 0.067	1.04 ± 0.045
UniProt Q8NBN3 and related entries	0.952 ± 0.015	1 ± 0.033
TXNDC5 (UniProt Q8NBS9)	0.984 ± 0.047	1 ± 0.037
GALNT12 (UniProt Q8IXK2)	1.1 ± 0.051	1.08 ± 0.079
UniProt Q8NCW5	0.983 ± 0.088	0.943 ± 0.099
REXO1 (UniProt Q8N1G1)	1.11 ± 0.13	1.01 ± 0.026
UniProt Q8NCR0 and related entries	1.07 ± 0.11	1.13 ± 0.071
UniProt Q8IZE3-2	0.999 ± 0.043	1.02 ± 0.079
UniProt Q8N9V3 and related entries	1.06 ± 0.031	1.04 ± 0.039
CBR4 (UniProt Q8N4T8)	1 ± 0.051	0.958 ± 0.083
UniProt Q8N5Z0 and related entries	1.15 ± 0.25	1.03 ± 0.078
USP32 (UniProt Q8NFA0)	0.998 ± 0.056	0.994 ± 0.13
UniProt Q8N5Y8 and related entries	1.05 ± 0.014	1.06 ± 0.014
GSTCD (UniProt Q8NEC7)	1.03 ± 0.053	0.989 ± 0.05
ARFGAP2 (UniProt Q8N6H7)	1 ± 0.04	0.975 ± 0.04
UniProt Q8NEZ2 and related entries	0.922 ± 0.023	0.953 ± 0.061
UniProt Q8N5G2	1.12 ± 0.3	1 ± 0.074
UniProt Q8N8K9 and related entries	0.997 ± 0.097	0.982 ± 0.027
UniProt Q8IYH5 and related entries	0.966 ± 0.14	1 ± 0.15
UniProt Q8NHV4 and related entries	0.964 ± 0.03	1 ± 0.013
RNF214 (UniProt Q8ND24)	0.984 ± 0.016	0.988 ± 0.054
ANKRD44 (UniProt Q8N8A2)	0.984 ± 0.063	0.985 ± 0.058
SHCBP1 (UniProt Q8NEM2)	1.06 ± 0.081	1.01 ± 0.056

Target	NP40-soluble protein abundance (concentration: 0.1mM)	NP40-soluble protein abundance (concentration: 0.5mM)
UniProt Q8NFC6	0.987 ± 0.021	0.995 ± 0.06
UniProt Q8NDV7 and related entries	0.987 ± 0.016	1 ± 0.035
SYTL1 (UniProt Q8IYJ3)	1.03 ± 0.034	1 ± 0.08
UniProt Q8N5U6 and related entries	1.02 ± 0.063	1.05 ± 0.038
UniProt Q8NCD3 and related entries	0.946 ± 0.06	0.935 ± 0.14
SRBD1 (UniProt Q8N5C6)	1.08 ± 0.055	1.08 ± 0.034
NUP93 (UniProt Q8N1F7)	1.02 ± 0.057	1.03 ± 0.038
UniProt Q8ND56 and related entries	0.99 ± 0.012	0.994 ± 0.041
ENGASE (UniProt Q8NFI3)	1.101 ± 0.0088	1.1 ± 0.057
UniProt Q8TB61 and related entries	0.998 ± 0.036	0.966 ± 0.12
GPD1L (UniProt Q8N335)	0.985 ± 0.021	0.998 ± 0.025
UniProt Q8N9N2-2|Q8N9N2	1.05 ± 0.064	1.04 ± 0.065
UniProt Q8TB72 and related entries	0.947 ± 0.043	0.94 ± 0.042
UniProt Q8TAP9	0.976 ± 0.064	0.894 ± 0.12
TTC39C (UniProt Q8N584)	1.04 ± 0.02	1.05 ± 0.029
UniProt Q8IVS2	0.993 ± 0.048	0.98 ± 0.039
ZNRF2 (UniProt Q8NHG8)	0.906 ± 0.082	0.88 ± 0.099
UniProt Q8N3X6 and related entries	0.877 ± 0.1	0.925 ± 0.039
RDH13 (UniProt Q8NBN7)	0.956 ± 0.053	0.998 ± 0.03
UniProt Q8N128 and related entries	0.92 ± 0.043	0.946 ± 0.04
UniProt Q8IYS2 and related entries	1.07 ± 0.093	1.07 ± 0.076
UniProt Q8NB37	0.968 ± 0.09	1.01 ± 0.046
UniProt Q8IWS0 and related entries	1.04 ± 0.053	1.05 ± 0.021
ANKRD52 (UniProt Q8NB46)	1.04 ± 0.075	1.02 ± 0.06
UniProt Q8N0W3 and related entries	1.03 ± 0.029	0.936 ± 0.074

6 entries drawn at random from the list so far, as already listed:
Target	NP40-soluble protein abundance (concentration: 0.1mM)	NP40-soluble protein abundance (concentration: 0.5mM)
TTC39C (UniProt Q8N584)	1.04 ± 0.02	1.05 ± 0.029
UniProt Q8N9N2-2|Q8N9N2	1.05 ± 0.064	1.04 ± 0.065
UniProt Q8IYS2 and related entries	1.07 ± 0.093	1.07 ± 0.076
SYTL1 (UniProt Q8IYJ3)	1.03 ± 0.034	1 ± 0.08
UniProt Q8N3X6 and related entries	0.877 ± 0.1	0.925 ± 0.039
UniProt Q8TAP9	0.976 ± 0.064	0.894 ± 0.12

Remaining list, next part.

Target	NP40-soluble protein abundance (concentration: 0.1mM)	NP40-soluble protein abundance (concentration: 0.5mM)
SRFBP1 (UniProt Q8NEF9)	0.971 ± 0.031	0.973 ± 0.044
D2HGDH (UniProt Q8N465)	1.01 ± 0.054	0.926 ± 0.024
KIAA0319L (UniProt Q8IZA0)	0.982 ± 0.035	0.946 ± 0.058
UniProt Q8NBJ5	1.04 ± 0.06	1 ± 0.026
UniProt Q8NE86 and related entries	1.11 ± 0.082	1.05 ± 0.057
TOR1AIP2 (UniProt Q8NFQ8)	0.937 ± 0.045	0.885 ± 0.044
LRRC57 (UniProt Q8N9N7)	1.02 ± 0.033	1.03 ± 0.039
UniProt Q8IXW5 and related entries	1.03 ± 0.028	1.01 ± 0.044
UniProt Q8TAT6 and related entries	1.03 ± 0.058	1.04 ± 0.047
UniProt Q8N371	1.08 ± 0.064	1.05 ± 0.031
UBR7 (UniProt Q8N806)	1.02 ± 0.044	1 ± 0.054
C1orf174 (UniProt Q8IYL3)	0.894 ± 0.054	0.98 ± 0.087
CXorf38 (UniProt Q8TB03)	0.988 ± 0.014	0.955 ± 0.022
EXOC8 (UniProt Q8IYI6)	1.02 ± 0.018	1.03 ± 0.036
UniProt Q8IVT5 and related entries	0.928 ± 0.096	0.988 ± 0.065
CMAS (UniProt Q8NFW8)	1.05 ± 0.084	1.1 ± 0.04
MRPL41 (UniProt Q8IXM3)	0.784 ± 0.3	0.901 ± 0.29
UniProt Q8N6T7 and related entries	1 ± 0.058	1.03 ± 0.066
UniProt Q8IY95 and related entries	1 ± 0.083	1 ± 0.059
MLKL (UniProt Q8NB16)	1.04 ± 0.097	1.01 ± 0.034
UniProt Q8N3U4 and related entries	1.07 ± 0.075	1.05 ± 0.047
DCP1B (UniProt Q8IZD4)	0.977 ± 0.035	0.999 ± 0.02
UniProt Q8N5N7 and related entries	1.01 ± 0.32	0.977 ± 0.26
RCOR2 (UniProt Q8IZ40)	0.9791 ± 0.0094	0.994 ± 0.041
